Measurements reported in patent publication US20070134261A1, “Effectors of innate immunity” (priority 2001, published 2007).
Not every detail of the peptide structures is certain; ends, links or a residue may be inferred. No end group written: not given here.

Test system: A549 epithelial cells
Test: Human Operon arrays (PRHU04-S1) of A549 cells treated with peptide alone (Tables 31-37, 53)
Details: peptide 50 μg/ml, 4 h

Sequence: NLPDLKKPRVPATS [ID 17]
- ID#:ctrl intensity ratio, AB006622 KIAA0284 protein: 4.6
- ID#:ctrl intensity ratio, AB010419 core-binding factor: 5.9
- ID#:ctrl intensity ratio, AB014615 fibroblast growth factor 8: 7.7
- ID#:ctrl intensity ratio, AB017016 brain-specific protein: 5.5
- ID#:ctrl intensity ratio, AB020683 KIAA0876 protein: 9.4
- ID#:ctrl intensity ratio, AB022847 unknown: 3.7
- ID#:ctrl intensity ratio, AB023188 KIAA0971 protein: 7.2
- ID#:ctrl intensity ratio, AB023197 KIAA0980 protein: 4.9
- ID#:ctrl intensity ratio, AB023215 KIAA0998 protein: 16.1
- ID#:ctrl intensity ratio, AB032436 unknown: 2.6
- ID#:ctrl intensity ratio, AC004079 homeo box A2: 9.1
- ID#:ctrl intensity ratio, AF013620 Immunoglobulin heavy variable 4-4: 3.8
- ID#:ctrl intensity ratio, AF053712 TNF superfamily_member 11: 5.2
- ID#:ctrl intensity ratio, AF055018 unknown: 6.5
- ID#:ctrl intensity ratio, AJ000512 serum/glucocorticoid regulated kinase: 2.7
- ID#:ctrl intensity ratio, AK000685 unknown: 3.0
- ID#:ctrl intensity ratio, AK000946 DKFZP566C243 protein: 2.7
- ID#:ctrl intensity ratio, AK001230 DKFZP586D211 protein: 2.7
- ID#:ctrl intensity ratio, AL033377 unknown: 2.2
- ID#:ctrl intensity ratio, AL049296 unknown: 2.0
- ID#:ctrl intensity ratio, AL050219 unknown: 16.1
- ID#:ctrl intensity ratio, AL080182 unknown: 2.4
- ID#:ctrl intensity ratio, AL109726 uknown: 3.7
- ID#:ctrl intensity ratio, AL137284 unknown: 3.7
- ID#:ctrl intensity ratio, AL137540 unknown: 2.3
- ID#:ctrl intensity ratio, AL137658 unknown: 8.6
- ID#:ctrl intensity ratio, AL137728 unknown: 2.1
- ID#:ctrl intensity ratio, AL157466 unknown: 8.6
- ID#:ctrl intensity ratio, D38550 E2F TF 3: 2.4
- ID#:ctrl intensity ratio, D45399 phosphodiesterase: 4.0
- ID#:ctrl intensity ratio, D50926 KIAA0136 protein: 3.2
- ID#:ctrl intensity ratio, J04599 biglycan: 5.4
- ID#:ctrl intensity ratio, L17325 pre-T/NK cell associated protein: 4.0
- ID#:ctrl intensity ratio, M91036 hemoglobin gamma G: 21.6
- ID#:ctrl intensity ratio, M91036 hemoglobin_gamma A: 4.8
- ID#:ctrl intensity ratio, NM_012126 carbohydrate sulfotransferase 5: 2.5
- ID#:ctrl intensity ratio, NM_012177 F-box protein: 6.8
- ID#:ctrl intensity ratio, NM_014178 HSPC156 protein: 5.5
- ID#:ctrl intensity ratio, NM_016331 zinc finger protein: 9.7
- ID#:ctrl intensity ratio, U22492 G protein-coupled receptor 8: 3.6
- ID#:ctrl intensity ratio, U76010 solute carrier family 30: 8.9
- ID#:ctrl intensity ratio, U76368 solute carrier family 7: 3.0
- ID#:ctrl intensity ratio, X04014 unknown: 3.1
- ID#:ctrl intensity ratio, X04391 CD5 antigen: 5.9
- ID#:ctrl intensity ratio, X54673 Solute-carrier family 6: 5.9
- ID#:ctrl intensity ratio, X58079 S100 calcium-binding protein A1: 2.5
- ID#:ctrl intensity ratio, X75311 mevalonate kinase: 5.1
- ID#:ctrl intensity ratio, X78712 glycerol kinase pseudogene 2: 3.3
- ID#:ctrl intensity ratio, X85740 CCR4: 5.2
- ID#:ctrl intensity ratio, Z11898 POU domain_class 5 TF 1: 2.2
- ID#:ctrl intensity ratio, AL031121 unknown (Formula B peptides): 4.6
- ID#:ctrl intensity ratio, NM_012450 sulfate transporter 1 (Formula B peptides): 5.9
- ID#:ctrl intensity ratio, U21931 fructose-bisphosphatase 1 (Formula B peptides): 3.2
